Data on six sequences can be found in article PMC12216690, “MORC2 is a phosphorylation-dependent DNA compaction machine” (Nature Communications, 2024).

Data set [1] addresses MORC2 PAK1-phosphorylated (Homo sapiens) (UniProt Q9Y6X9). Kind of data set: SPR. Particulars: PAK1 treated; SPR: 10 mM HEPES pH 7.4, 300 mM NaCl, 3 mM EDTA, 0.05% Tween-20, 20 C; recombinant protein; residues 1-1032; protein details: C-terminal 3C site-twin StrepII; label: 5'-biotin on strand 1.
Data set [2] concerns the target T1, MORC2 S87A (Homo sapiens) (UniProt Q9Y6X9).
T1 sequence (looked up): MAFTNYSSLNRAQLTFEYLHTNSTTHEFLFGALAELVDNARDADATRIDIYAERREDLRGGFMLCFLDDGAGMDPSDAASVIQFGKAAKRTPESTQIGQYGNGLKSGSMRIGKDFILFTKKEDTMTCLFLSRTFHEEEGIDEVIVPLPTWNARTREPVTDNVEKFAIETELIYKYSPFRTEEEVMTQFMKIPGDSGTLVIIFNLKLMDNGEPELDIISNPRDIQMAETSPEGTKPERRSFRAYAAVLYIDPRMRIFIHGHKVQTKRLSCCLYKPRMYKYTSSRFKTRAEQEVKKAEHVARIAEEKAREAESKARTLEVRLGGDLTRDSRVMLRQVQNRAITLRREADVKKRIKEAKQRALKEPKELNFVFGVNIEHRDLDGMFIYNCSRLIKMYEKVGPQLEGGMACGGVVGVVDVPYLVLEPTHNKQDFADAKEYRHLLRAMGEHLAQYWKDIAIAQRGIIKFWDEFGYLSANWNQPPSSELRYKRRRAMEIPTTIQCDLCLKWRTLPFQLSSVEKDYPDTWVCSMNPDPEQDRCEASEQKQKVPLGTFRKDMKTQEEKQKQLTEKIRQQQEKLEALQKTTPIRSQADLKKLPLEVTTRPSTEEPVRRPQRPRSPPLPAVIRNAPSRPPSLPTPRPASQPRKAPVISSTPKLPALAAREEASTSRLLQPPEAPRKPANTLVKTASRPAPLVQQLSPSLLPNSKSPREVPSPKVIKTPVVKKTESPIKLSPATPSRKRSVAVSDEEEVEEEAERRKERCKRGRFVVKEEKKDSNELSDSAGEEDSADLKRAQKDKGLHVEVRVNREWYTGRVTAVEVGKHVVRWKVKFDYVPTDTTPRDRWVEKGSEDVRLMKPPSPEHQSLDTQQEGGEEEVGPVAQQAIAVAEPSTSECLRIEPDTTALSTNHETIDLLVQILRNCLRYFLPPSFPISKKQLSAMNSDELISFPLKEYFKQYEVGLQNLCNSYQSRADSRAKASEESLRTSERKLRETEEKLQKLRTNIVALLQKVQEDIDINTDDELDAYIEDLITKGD
Description: SPR. As to conditions: similar affinity to WT; SPR: 10 mM HEPES pH 7.4, 300 mM NaCl, 3 mM EDTA, 0.05% Tween-20, 20 C; recombinant protein; residues 1-1032; protein details: C-terminal 3C site-twin StrepII; label: 5'-biotin on strand 1.

Data set [3] addresses MORC2 PD (phosphodead) S725A,S730A,S739A,S743A,S777A,S779A (Homo sapiens) (UniProt Q9Y6X9). Kind of data set: SPR. Particulars: SPR: 10 mM HEPES pH 7.4, 300 mM NaCl, 3 mM EDTA, 0.05% Tween-20, 20 C; recombinant protein; residues 1-1032; protein details: C-terminal 3C site-twin StrepII; label: 5'-biotin on strand 1.
Data set [4] addresses MORC2 pre-treated (Homo sapiens) (UniProt Q9Y6X9). Description: SPR. Particulars: reaction buffer pre-treated; SPR: 10 mM HEPES pH 7.4, 300 mM NaCl, 3 mM EDTA, 0.05% Tween-20, 20 C; recombinant protein; residues 1-1032; protein details: C-terminal 3C site-twin StrepII; label: 5'-biotin on strand 1.
Data set [5] addresses T2, MORC2 604-1032 (Homo sapiens) (UniProt Q9Y6X9).
T2 sequence (looked up): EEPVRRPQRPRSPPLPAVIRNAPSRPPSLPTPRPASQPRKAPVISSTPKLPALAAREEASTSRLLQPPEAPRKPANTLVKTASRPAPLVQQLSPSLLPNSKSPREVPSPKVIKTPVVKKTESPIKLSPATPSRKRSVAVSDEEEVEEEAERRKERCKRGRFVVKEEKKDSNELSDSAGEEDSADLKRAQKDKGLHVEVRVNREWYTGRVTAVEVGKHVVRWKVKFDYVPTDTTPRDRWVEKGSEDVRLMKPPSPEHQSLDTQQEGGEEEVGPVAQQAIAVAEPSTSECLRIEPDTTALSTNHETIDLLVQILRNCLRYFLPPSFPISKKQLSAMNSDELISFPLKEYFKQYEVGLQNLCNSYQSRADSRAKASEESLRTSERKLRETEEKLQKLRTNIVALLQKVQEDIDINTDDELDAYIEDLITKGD
Kind of data set: EMSA. As to conditions: some binding rescued; EMSA: 20 mM Tris pH 7.4, 75 mM NaCl, 5% glycerol, 0.005% NP-40, 0.5 mM MgCl2, RT 30 min; recombinant protein; residues 604-1032; protein details: C-terminal 3C site-twin StrepII; label: 5' 6FAM, IRDye680 or IRDye800 on XOm1.

Data set [6] concerns the target T3, MORC2 GHKL (Homo sapiens) (UniProt Q9Y6X9).
T3 sequence (looked up): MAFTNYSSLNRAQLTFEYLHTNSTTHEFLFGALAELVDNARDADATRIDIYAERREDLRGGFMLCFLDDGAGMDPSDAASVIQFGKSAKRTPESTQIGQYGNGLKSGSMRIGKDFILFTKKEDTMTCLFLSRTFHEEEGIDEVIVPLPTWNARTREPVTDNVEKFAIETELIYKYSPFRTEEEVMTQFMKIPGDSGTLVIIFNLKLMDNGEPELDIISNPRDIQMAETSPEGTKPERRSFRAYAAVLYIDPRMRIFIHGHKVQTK
Kind of data set: EMSA. Particulars: lacks CW and CC2; EMSA: 20 mM Tris pH 7.4, 75 mM NaCl, 5% glycerol, 0.005% NP-40, 0.5 mM MgCl2, RT 30 min; recombinant protein; residues 1-265; protein details: C-terminal 3C site-twin StrepII; label: 5' 6FAM, IRDye680 or IRDye800 on XOm1.

For another data set, the target named is T4, MORC2 WT (Homo sapiens) (UniProt Q9Y6X9).
T4 sequence (looked up): T1 sequence (looked up) with A87S
Description: EMSA. Particulars: EMSA: 20 mM Tris pH 7.4, 75 mM NaCl, 5% glycerol, 0.005% NP-40, 0.5 mM MgCl2, RT 30 min, recombinant protein, residues 1-1032, protein details: C-terminal 3C site-twin StrepII.

Where a chain is given by its changes, count along the chain named. For some of these results: A weaker result is weaker than the reference pair of the same experiment. For some of these results: Tags and fusion partners may be left off the protein sequences shown. For some of these results: Construct, isoform or probe ends are uncertain for at least one entry. For some of these results: At least one verdict rests on a figure or table, not on a statement of the authors.

In the case of “ACGCTGCCGAATTCTACCAGTGCCTTGCTAGGACATCTTTGCCCACCTGCAGGTTCACCC (double strand) [60 bp dsDNA (biotin, SPR)]”, the results for the Kd in data set [1], in data set [3] and in data set [4] were 0.493 µM, 0.00535 µM and 0.16 µM, respectively. For the same sequence, the binding result in data set [2] is “binds”. As to “ACGCTGCCGAATTCTACCAGTGCCTTGCTAGGACATCTTTGCCCACCTGCAGGTTCACCC (double strand) [60 bp dsDNA (XOm1/XOm1.comp)]”, the binding result in data set [5] and in data set [6] was “binds more weakly” in each case.

As for “ATCGATGTCTCTAGACAGCTGCTCAGGATTGATCTGTAATGGCC (double strand) [44 bp dsDNA]”, in the data set with MORC2 WT (Homo sapiens) (label: IRDye700), the binding result was “binds”. Regarding “ATCGATGTCTCTAGACAGCTGCTCAGGATTGATCTGTAA (double strand) [39 bp dsDNA]”, the binding result with MORC2 WT (Homo sapiens) (label: IRDye700) is on record as “binds”.

With “ATCGATGTCTCTAGACAGCTGCTCAGGATTGATC (double strand) [34 bp dsDNA]”, the binding result with MORC2 WT (Homo sapiens) (label: IRDye700) is “binds”. On to “CGGTCGTTTAGCATACTAATCTGAGAGTCCGACGGTCGTCAGTCAGTCATGACTTCACAGAGGAAGGGCCAGTATCCTGTCCAAACTTGA (double strand) [90 bp dsDNA]”, for which the binding result with MORC2 WT (Homo sapiens) (label: IRDye800 (competition), IRDye700 (length series)) is recorded as “binds”.
